# Assay results published in the supplement of paper PMC8728848.
# The other results are listed elsewhere or left out.
# B1: AT3G09350(27) (Arabidopsis thaliana), Q84J81 (protein)
# chain: MAKDGPNWDGLLKWSLSHADGTRPTRQLSEEDRKWFMEAMQSQTVDVVKRMKEITLVMQTPEQVLVEHGVTPEDIQDLLDELQEHVESIDMANDLHSIGGLVPLLSFLKNSHANIRAKAADVVSTIVQNNPRSQELVMETNALESLLSNFTSDTDIHARTQALGAISSLIRHNKPGVTAFKLANGYAGLRDALASDSVRFQRKALNLLQYLLQEDDSDRSIATGLGFPRVMMHLASSDDAEIREAALRGLLELSREKNDGSSSIDKSDEKLRQLLEERIKGITLMSQEDLETVKEERQLVDLLWSICYNEPSSLREKGLVVLPGEDALPPDVASKLFEPPLRASAANRNATEKKDEPMKLLGP
# Experiments:
# Test in all cases: glycan array binding signal (z-score within array); higher = stronger binding
# Conditions in all cases: glycan notation: IUPAC condensed, linker removed
# [1] = biological target: Neu5Ac(a2-6)GlcNAc(b1-4)GlcNAc(b1-4)GlcNAc
# Procedure, shortened: (§1)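 The binding signal is a Z-score computed within each array. Data were drawn from 3228 arrays in the Consortium for Functional Glycomics database, restricted to those with a known protein sequence. Scores were averaged over arrays of the same protein sequence at different concentrations or buffers, and over linkers, and negative values can be taken as non-binding.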
# Neu5Ac(a2-8)Neu5Ac = biological target: Neu5Ac(a2-8)Neu5Ac
# Procedure, shortened: as §1
# [2] = biological target: Neu5Ac(a2-8)Neu5Ac(a2-3)Gal(b1-3)GalNAc(b1-4)[Neu5Ac(a2-3)]Gal(b1-4)Glc
# Procedure, shortened: as §1
# [3] = biological target: Neu5Ac(a2-8)Neu5Ac(a2-3)Gal(b1-3)GalNAc(b1-4)[Neu5Ac(a2-8)Neu5Ac(a2-3)]Gal(b1-4)Glc
# Procedure, shortened: as §1
# [4] = biological target: Neu5Ac(a2-8)Neu5Ac(a2-3)Gal(b1-4)Glc
# Procedure, shortened: as §1
# [5] = biological target: Neu5Ac(a2-8)Neu5Ac(a2-3)Gal(b1-4)GlcNAc
# Procedure, shortened: as §1
# [6] = biological target: Neu5Ac(a2-8)Neu5Ac(a2-3)[Gal(b1-3)GalNAc(b1-4)]Gal(b1-4)Glc
# Procedure, shortened: as §1
# [7] = biological target: Neu5Ac(a2-8)Neu5Ac(a2-3)[GalNAc(b1-4)]Gal(b1-4)Glc
# Procedure, shortened: as §1
# [8] = biological target: Neu5Ac(a2-8)Neu5Ac(a2-8)Neu5Ac
# Procedure, shortened: as §1
# [9] = biological target: Neu5Ac(a2-8)Neu5Ac(a2-8)Neu5Ac(a2-3)Gal(b1-4)Glc
# Procedure, shortened: as §1
# [10] = biological target: Neu5Ac(a2-8)Neu5Ac(a2-8)Neu5Ac(a2-3)[Gal(b1-3)GalNAc(b1-4)]Gal(b1-4)Glc
# Procedure, shortened: as §1
# [11] = biological target: Neu5Ac(a2-8)Neu5Ac(a2-8)Neu5Ac(a2-3)[GalNAc(b1-4)]Gal(b1-4)Glc
# Procedure, shortened: as §1
# [12] = biological target: Neu5Ac(a2-8)Neu5Ac(a2-8)Neu5Ac(a2-8)Neu5Ac(a2-3)[GalNAc(b1-4)]Gal(b1-4)Glc
# Procedure, shortened: as §1
# [13] = biological target: Neu5Ac(a2-8)Neu5Gc(a2-3)Gal(b1-4)GlcNAc
# Procedure, shortened: as §1
# [14] = biological target: Neu5Ac(b2-6)Gal(b1-4)GlcNAc
# Procedure, shortened: as §1
# Neu5Ac(b2-6)GalNAc = biological target: Neu5Ac(b2-6)GalNAc
# Procedure, shortened: as §1
# [15] = biological target: Neu5Ac9Ac(a2-3)Gal(b1-3)GlcNAc
# Procedure, shortened: as §1
# [16] = biological target: Neu5Ac9Ac(a2-3)Gal(b1-4)GlcNAc
# Procedure, shortened: as §1
# [17] = biological target: Neu5Ac9Ac(a2-6)Gal(b1-4)GlcNAc
# Procedure, shortened: as §1
# [18] = biological target: Neu5Gc(a2-3)Gal(b1-3)GlcNAc
# Procedure, shortened: as §1
# [19] = biological target: Neu5Gc(a2-3)Gal(b1-3)[Fuc(a1-4)]GlcNAc
# Procedure, shortened: as §1
# Neu5Gc(a2-3)Gal(b1-4)Glc = biological target: Neu5Gc(a2-3)Gal(b1-4)Glc
# Procedure, shortened: as §1
# [20] = biological target: Neu5Gc(a2-3)Gal(b1-4)GlcNAc
# Procedure, shortened: as §1
# [21] = biological target: Neu5Gc(a2-3)Gal(b1-4)GlcNAc(b1-3)Gal(b1-4)GlcNAc(b1-2)Man(a1-3)[Neu5Gc(a2-3)Gal(b1-4)GlcNAc(b1-3)Gal(b1-4)GlcNAc(b1-2)Man(a1-6)]Man(b1-4)GlcNAc(b1-4)GlcNAc
# Procedure, shortened: as §1
# [22] = biological target: Neu5Gc(a2-3)Gal(b1-4)[Fuc(a1-3)]GlcNAc
# Procedure, shortened: as §1
# [23] = biological target: Neu5Gc(a2-6)Gal(b1-4)GlcNAc
# Procedure, shortened: as §1
# Neu5Gc(a2-6)GalNAc = biological target: Neu5Gc(a2-6)GalNAc
# Procedure, shortened: as §1
# [24] = biological target: Neu5Gc(a2-8)Neu5Ac(a2-3)Gal(b1-4)GlcNAc
# Procedure, shortened: as §1
# [25] = biological target: Neu5Gc(a2-8)Neu5Gc(a2-3)Gal(b1-4)GlcNAc
# Procedure, shortened: as §1
# [26] = biological target: Neu5Gc(a2-8)Neu5Gc(a2-3)Gal(b1-4)GlcNAc(b1-3)Gal(b1-4)GlcNAc
# Procedure, shortened: as §1
# [27] = biological target: Neu5Gc(a2-8)Neu5Gc(a2-6)Gal(b1-4)GlcNAc
# Procedure, shortened: as §1
# [28] = biological target: Neu5Gc(b2-6)Gal(b1-4)GlcNAc
# Procedure, shortened: as §1
binder,measurement,setting,value
B1,glycan array binding signal (z-score),[1],-0.499
same,glycan array binding signal (z-score),Neu5Ac(a2-8)Neu5Ac,0.54
same,glycan array binding signal (z-score),[2],-0.731
same,glycan array binding signal (z-score),[3],0.381
same,glycan array binding signal (z-score),[4],-0.427
same,glycan array binding signal (z-score),[5],-0.748
same,glycan array binding signal (z-score),[6],-0.074
same,glycan array binding signal (z-score),[7],-0.077
same,glycan array binding signal (z-score),[8],-0.349
same,glycan array binding signal (z-score),[9],-0.201
same,glycan array binding signal (z-score),[10],-0.064
same,glycan array binding signal (z-score),[11],0.721
same,glycan array binding signal (z-score),[12],-0.375
same,glycan array binding signal (z-score),[13],-0.282
same,glycan array binding signal (z-score),[14],0.639
same,glycan array binding signal (z-score),Neu5Ac(b2-6)GalNAc,-0.887
same,glycan array binding signal (z-score),[15],-0.448
same,glycan array binding signal (z-score),[16],0.004
same,glycan array binding signal (z-score),[17],-0.732
same,glycan array binding signal (z-score),[18],-0.279
same,glycan array binding signal (z-score),[19],-0.489
same,glycan array binding signal (z-score),Neu5Gc(a2-3)Gal(b1-4)Glc,0.999
same,glycan array binding signal (z-score),[20],-0.862
same,glycan array binding signal (z-score),[21],-0.865
same,glycan array binding signal (z-score),[22],-0.374
same,glycan array binding signal (z-score),[23],-0.12
same,glycan array binding signal (z-score),Neu5Gc(a2-6)GalNAc,-0.535
same,glycan array binding signal (z-score),[24],-0.317
same,glycan array binding signal (z-score),[25],-0.815
same,glycan array binding signal (z-score),[26],0.06
same,glycan array binding signal (z-score),[27],-0.645
same,glycan array binding signal (z-score),[28],-0.475

# A run of entries from the list above, as a working copy:
binder,measurement,setting,value
B1,glycan array binding signal (z-score),[23],-0.12
same,glycan array binding signal (z-score),Neu5Gc(a2-6)GalNAc,-0.535
